This is an account of results in PubChem BioAssay AID1508600 (Functional Genomics Laboratory (NCATS/FGL), 2020).

In all, about 53,000 sequences went through this assay and about 3,700 (7%) were called active.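 The calls were made as follows: active = gene knockdowns whose robust z-score for IL-1 alpha signal is at least 2 or at most -2, so actives lie on both sides; inactive = the rest.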 The list shows a part of the results.

This experiment in a line: Components of the Cytosolic LPS Sensing Pathway: Gene Identification via Genome-wide siRNA Screen.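 Also: robust z of the log signal after scaling to non-targeting control siRNA wells of the plate.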 As to conditions: RAW264.7 macrophages, IL-1a HTRF, actives lie on both sides, screened at 100 nM (by protocol), cells primed 5 h with Pam3CSK4 first. The gist of the method:
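IL-1a HTRF of supernatants after 24 hour LipidA transfection of Pam3CSK4-primed (5 hours) RAW264.7 cells, 48h post-siRNA transfection (100 nM). Scores: percent of plate negative-control median, then log-based robust z-score.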
In general terms: TR-FRET usually uses a lanthanide donor and a delayed reading to cut background.
As for GGAAUGUGAAGGAUGUUCUTT against Nhlh1, the z-score is inactive: 0.0347.

For the sequence GGAAGUGUGACUUGAUUGCTT against Tango6, the z-score was inactive: -0.0308.

Turning to GGCAUUAAAGACCUGUUAATT against Kpnb1, the z-score was inactive: -0.887.

In the case of GGAAGAAGAAGUUAUUGUGTT against Ly6g2, the z-score was inactive: 0.0348.

In the case of GGUUGUAGAACAUGAGUUATT against Fktn, the z-score was inactive: -0.309.

Turning to GGACAGACUGUGAUUCCUCTT against Bscl2, the z-score is inactive: -1.02.

“CCUCGUUCCUGAUAACCAUTT against 0610010K14Rik”: the z-score was inactive: -0.0752.

Regarding GCUUUUACAAUUCAGGCAGTT against Naalad2, the z-score was inactive: -0.326.

With GGAUCAUUUGUUAAUGUACTT against Ddx3y, the z-score was inactive: 0.0896.

Regarding GGAGAUGUGUUGAGUUUUCTT against Abcg2, the z-score is active: 4.47.

Take GGAUGACUUCUGUCUUCUUTT against Slc25a45: the z-score was inactive: -0.348.

Regarding CGGGUCUCAGUCUUUCCUATT against Plekhs1, the z-score was inactive: 0.26.

On to GCACGUCUUAAAACAUUUATT against Actr6, for which the z-score was inactive: 1.7.

Consider GUGUGGAUAGCUGUAAACGTT against Tcl1b5, for which the z-score was inactive: -1.2.

On to GGUAACUCUGCUGGGAUUCTT against Olfr444, for which the z-score was inactive: 1.11.

As for GCGAAUUCGAAAGCUAUGATT against Arhgef10, the z-score is active: -2.19.

With CCCUAUCAUUACCAAGCUGTT against Hspa8, the z-score is inactive: 0.045.

As to GGACACUCUACGUAUCUCATT against Tnfrsf1b, the z-score is inactive: -1.16.

Consider GGCUCACGCACUGACUAUUTT against Osgepl1, for which the z-score was inactive: -0.074.

Regarding GGGAUCCUAACAUCAGGGATT against Ly6c1, the z-score is inactive: -1.19.

On to “GUUUUAGGCAACCUUGGGUTT against Olfr1038-ps”, for which the z-score is inactive: -0.14.

Consider CCUAUGGUGGUGAGAGGACTT against Fbxl18, for which the z-score was inactive: -0.227.

As for GCACUUAUUCUAGAGGAGATT against Appbp2, the z-score was inactive: -0.291.

Regarding GGACAAUGAACUGAUUACCTT against Ap1s2, the z-score is inactive: 0.992.

In the case of GGUUCCAUGUUCAGAAUUUTT against Alg9, the z-score is active: 2.04.

GGUGGCUUUAGGGAACAUUTT against Dctn3: the z-score is inactive: 0.369.

As for GGACUUCAACCUGCUGUAUTT against Kctd15, the z-score is inactive: 1.53.

Regarding GGUUUGGUAUCAUGUAUGUTT against Ddx1, the z-score is inactive: 0.864.

Consider GGGCUAUCGCUGCAUUAUCTT against Cbs, for which the z-score was inactive: -1.01.

With GGGUCUCUUACAAAGUCCATT against Msrb2, the z-score was inactive: -0.254.

As to GGAAUAUUGUCUUGAAUGATT against Fasl, the z-score was inactive: 0.615.

With GGCUGGAUAUAUGGUGUACTT against Prodh2, the z-score is inactive: 1.74.

As for CCAUCGAGUAAAGUUUGAATT against Grxcr1, the z-score is inactive: -0.0846.

As for GGAUUCUUCUUCUCAGACGTT against Ciz1, the z-score is inactive: 0.701.

Take GCAAGCAUGUGAGAGGGCUTT against Anapc10: the z-score was inactive: 0.98.

Consider GCAAAUUCACCGGAAAAUGTT against Sorbs3, for which the z-score was inactive: 1.04.

GGUCAAGCAGCUGACCCAATT against Elfn1: the z-score is inactive: -0.643.

Consider CCAAUGGUUUAAGCCUAGCTT against Stra6l, for which the z-score is inactive: -0.553.

Take GGUUUUGGCUCGAAGGAAATT against Tead2: the z-score was inactive: -0.31.

Take GGAUUUUGUUGGAACAGAATT against Gna15: the z-score is inactive: -0.236.

Regarding GGACAUUCGAGGAGAGACCTT against Rdh13, the z-score was inactive: 0.106.

Regarding GCAUUUGGGCAACGAGAUGTT against Nr5a1, the z-score was inactive: -1.3.

Regarding GCUAGUCAUGCUACGGAAUTT against Aftph, the z-score was inactive: 0.601.

With CCUGGAUUUUUCCAAACAATT against Ost4, the z-score is inactive: -1.32.

For the sequence CCAACUCUAAUAAUAACAGTT against Slc22a26, the z-score is active: 3.31.

GGCGCAGCAAAUUCAAUUUTT against Shmt2: the z-score is inactive: 0.0628.

In the case of GGCUGUGAUCAAAGAACAGTT against Bbs4, the z-score is inactive: 0.507.

With GGUAAAUUGUCAGAGUUUUTT against Phka1, the z-score is inactive: 0.83.

Take CCCGUUCAAGCAAUUACAUTT against G2e3: the z-score was inactive: -1.05.

Regarding CGGUUAGAUGAGCUUGAGATT against Smad2, the z-score was inactive: -0.725.

Turning to CGUUACCCUGGAUUCCGAUTT against Tex47, the z-score was inactive: 0.731.

Take CCAUACGUUUUUCAGAAUGTT against Epb41l4a: the z-score was inactive: 0.0893.

As to GGGUAAAACAGAGGAAGAATT against Snrnp27, the z-score was inactive: 1.04.

For GGGAGAGUAAUGUGGACAUTT against Slc37a2, the z-score was active: 3.86.

With GGAACGAUUGGUUUUUUUUTT against Ms4a6c, the z-score is inactive: 0.0512.

For the sequence GCUACAAGAUGUGGUCAACTT against Cdc42ep1, the z-score was inactive: 1.86.

Turning to GGUUAUCGCAUUUGGUGGUTT against Olfr1511, the z-score was inactive: 0.104.

Regarding GGCAUACUUGUACCGCUAUTT against Mmp9, the z-score was inactive: -0.35.

Regarding GGAGGAUCCUGAACGAAAATT against Med19, the z-score was inactive: -0.863.

As for GGCUUUUUGUGUAUUUGUUTT against Evi5, the z-score is inactive: -1.43.

In the case of GGAAAAAUCACCAGUAAAATT against Cc2d2a, the z-score is inactive: -1.2.

Consider GCAACAAUUCUAACAGCUGTT against Lhfpl5, for which the z-score was inactive: -0.138.

Turning to GCGACAGAGGAAGCUUGUUTT against Mak16, the z-score is inactive: 0.634.

In the case of CCAAGGAGACUCAUCAACATT against Crebbp, the z-score is inactive: -0.804.

As to GGUUUCUUCGAAUUACUGUTT against Ugt1a7c, the z-score was inactive: 1.02.

For “GCCAGGAUAUGGAUAUGCATT against 1520401A03Rik”, the z-score is active: -2.06.

As to GCACUAAUCAACUUAAGUCTT against Ikzf5, the z-score was inactive: 0.566.

GGAAUACGCAGUGAAAAUCTT against Phkg1: the z-score is inactive: -0.103.

On to GGGUCCUUUUUAGCUGUAGTT against Vdac1, for which the z-score is active: 3.83.

As for GGUGUUUGGCGAUAAUAAGTT against Zdhhc15, the z-score was inactive: -0.237.

On to GCUGGAUAUUUCUAAGUAUTT against A26c3, for which the z-score was inactive: 1.9.

For the sequence GGAUGUGUCUCUGGAACAUTT against Cdc37l1, the z-score is inactive: -0.272.

As for GGAAAUACAGAACACAAGCTT against Plekhm3, the z-score is active: 2.04.

GCGUAUCUUCAACGUGGGATT against Khnyn: the z-score is inactive: -0.614.

Turning to GGACCAGCCAUACCUGUGATT against Ndufa7, the z-score is inactive: -1.93.

As for CCCUCUUGAAAUUAGUGUGTT against Dusp14, the z-score was inactive: 0.405.

In the case of GGACUGUAUCUCCAUCAAATT against Rep15, the z-score is inactive: 2.

In the case of GGACAUAGAAUCUUUACAGTT against Brwd1, the z-score is inactive: -0.212.

In the case of GCGCAGUCAGACCAUAUAUTT against Fbxl5, the z-score was inactive: -0.874.

For the sequence CCGCCGUUCCUUUUGUUUCTT against Sox21, the z-score is inactive: 1.3.

As for CCUCUUAAAACAAUACCAATT against Olr1, the z-score is inactive: 1.37.

As to CCGAGUUCGGGUAUCUUGGTT against Grwd1, the z-score is inactive: -0.885.

For the sequence CGGUAUGUAAAUCUAUCACTT against Kctd4, the z-score was inactive: -0.455.

As to “GCUGCUCAGAGUUAUGAUGTT against 1700088E04Rik”, the z-score was inactive: -0.459.

As to GCCGUGAACUUGCCAUCAATT against Banf2, the z-score was inactive: -0.247.

Regarding GGGCCAAUUCAACUUUGAUTT against Uck2, the z-score was inactive: 0.931.

For GGCAUGGUGUUUUACGUAUTT against Fgd6, the z-score was inactive: -0.792.

In the case of CCGGAGUUGUACAAUGAUATT against Blk, the z-score was inactive: 0.958.

Regarding GGAUCGGACUCUUUUAUAUTT against Psmd6, the z-score is inactive: -0.578.

Take “GGUCGUAAGACAGUUGUCCTT against 4932438H23Rik”: the z-score was inactive: -0.715.

Consider GGAUACUUCUCCAUUUUCUTT against C1ra, for which the z-score is inactive: 0.198.

Take GGAACUAGAAACUUCUUUUTT against Tmem74: the z-score was inactive: 0.416.

CGUUUUUCUCUAACUUACATT against Ldlrad3: the z-score was active: 2.6.

For GGAUUACCGGCAGCUGGAATT against Dnm1, the z-score was active: 2.24.

Turning to CGUUCCAGGUGAAGAUCCUTT against Tbx10, the z-score was inactive: 0.203.

On to GCUCAAUUGUGGAGCAGUCTT against Cd5l, for which the z-score was inactive: -0.247.

Regarding GCUAAAACGAACCACUAUGTT against Ephx3, the z-score is inactive: 1.61.

As to CCUAGCAGACUUUAACCAATT against Ptk2, the z-score is inactive: -0.882.

As for GGUGGCGGGAGAUGUUUUUTT against Pex6, the z-score was inactive: 0.85.

Take CCCAGUCCUAAGGUUCAGATT against Armcx2: the z-score was inactive: -1.2.

For the sequence GGUACUUGAAGCUCCUUGGTT against Fcmr, the z-score is inactive: -0.186.

In the case of GGACAAGUUUCGGAGAAUGTT against Kirrel3, the z-score is inactive: -0.0761.

For GCUAUAUAAAAGAACCGAUTT against Daxx, the z-score is inactive: 1.29.

Regarding GCUAUCCCUUAAAUGCUCATT against Pamr1, the z-score is inactive: -0.102.

Consider GGGUUCAGGAGAACUAACUTT against Tmem40, for which the z-score was inactive: -1.92.

With GCCAUUCGAGUUUUAUAUGTT against Nlrp4f, the z-score was inactive: -1.53.

Turning to GGAGAAAAGGAAGUAAACUTT against Aldh9a1, the z-score was inactive: 0.741.
